This experiment deals with (EL)3. The experiment in a line: time-resolved Thioflavin T fluorescence; salmon testes DNA injected into peptide; 150 mM NaCl, 10 mM MES pH 6.5, 50 uM Thioflavin T; 500 uM (HL)3 + 500 uM DNA final; 27 to 30 C; 270 s; both purified.

No constants are given. Whether binding was seen depends on the method and setting.

B1: (EL)3 (peptide)
peptide: ELELEL
As for B1, the binding entry is “no binding”.

The record behind these values is PMC3098241, “Amyloid-Associated Nucleic Acid Hybridisation” (PLoS ONE, 2011).
